PubChem BioAssay AID504793, Drosophila RNAi Screening Center – 2011

Test: 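Whole-genome screen for parts of the DNA damage checkpoint at G2/M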 (primary screen)
Cells: Drosophila S2R+ cells
Reagent: long dsRNA against Drosophila genes, about 0.25 µg dsRNA per well
Timing: 4 days of dsRNA, then 4 hours of drug before read-out
Treatment: doxorubicin 0.5 µM for 4 hours to cause double-strand breaks, in cells also given a low, harmless dose of dsRNA against nbs to sensitise the assay
Detection: 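Per-well count of mitotic cells stained for phospho-histone H3 after doxorubicin exposure, used as mitotic index; counts are raw and not normalised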
Direction: mitotic cells: higher = more cells in mitosis, weaker G2 arrest
Active means: 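Genes are called active only when high mitotic counts were reproduced with independent dsRNAs and mitosis was checked for delay without damage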
Calls: active = confirmed in follow-up tests; inactive = not confirmed
In all, the deposit lists about 23,000 reagents; this is an unselected part of those that have a named target and a result. Over the whole deposit, 62 (0.27%) got an active call. 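Calls come from follow-up tests whose scores are not deposited, so confirmed genes may have low counts here; counts are not normalised per plate.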 The raw values are shown without normalisation. A number with no mark means an inactive call. Reagents against one gene are numbered here.

target gene	dsRNA no.	mitotic cells, replicate 1
term	1	6
Tk	1	8
Tk	2	6
Tk	3	3
Abca3	1	7
CG8419	1	1
CG8389	1	12
CG8389	2	11
CG8389	3	5
TSG101	1	4
CG6602	1	2
Pax	1	8
Pax	2	7
Pax	3	4
br	1	4
br	2	4
br	3	9
Sce	1	8
CG10444	1	6
CG43902	1	15
CG43902	2	5
CG15550	1	7
CG15550	2	5
Orct2	1	10
Orct2	2	9
CG16879 (retired record)	1	9
CG16879 (retired record)	2	10
CG7492	1	8
hoe2	1	2
l(2)k05911	1	9
CREG	1	6
CG4744	1	5
CG4744	2	2
CG32681	1	10
mTor	1	11
CG42360	1	10
CG4115	1	4
CG12499	1	9
Cep290	1	8
Cep290	2	3
CG11019 (retired record)	1	7
CG11019 (retired record)	2	10
CG10019	1	1
CG31082 (retired record)	1	12
CG31082 (retired record)	2	5

Part of the list above, set out differently:
CG12499
- mitotic cells, replicate 1: 9

Cep290 #1
- mitotic cells, replicate 1: 8

Cep290 #2
- mitotic cells, replicate 1: 3
